The values below come from patent US20220396626A1.

These are yes or no findings as the source states them, for the method shown. Some entries that bind do so weakly or less than the wild type.

Test [1] has as its target human CLL1 ECD-His (human CLL1 extracellular domain with His tag) (human) (UniProt Q5QGZ9). Put plainly: BLI (ForteBio), antibody on AHC sensor, 60 nM human CLL1 ECD-His, compared with ch27H4.
The target in test [2] is T1, human CLL1 on the surface of transfected cells (HEK293-CLL1; HEK-293T membrane proteome array) (human) (UniProt Q5QGZ9).
T1 sequence (looked up): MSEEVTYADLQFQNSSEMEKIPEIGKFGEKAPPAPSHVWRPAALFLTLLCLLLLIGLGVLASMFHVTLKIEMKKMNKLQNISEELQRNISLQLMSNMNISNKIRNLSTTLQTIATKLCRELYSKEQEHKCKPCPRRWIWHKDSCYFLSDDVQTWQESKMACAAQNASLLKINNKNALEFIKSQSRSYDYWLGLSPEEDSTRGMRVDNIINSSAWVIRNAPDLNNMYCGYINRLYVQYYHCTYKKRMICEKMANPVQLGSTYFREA
Put plainly: flow cytometry on HEK293 cells overexpressing CLL1. For orientation: A flow cytometer gives signals particle by particle.

For test [3], the target named is T1, human CLL1 on the surface of transfected cells (HEK293-CLL1; HEK-293T membrane proteome array) (human). The experiment in a line: flow cytometry on 293T cells transiently transfected with CLL1 (title on the sheet); concentrations 5, 1, 0.2, 0.04, 0.008, unit not printed on the sheet.
The target is the same in test [4]. Put plainly: flow cytometry on HEK293 cells overexpressing CLL1, 0.01-1 ug/mL antibody.

B1: humanized antibody hz27H4H1L1 (antibody, V domains shown)
VH: EVQLVQSGAEVKKPGASVKVSCKASGYTFTGYHMHWVRQAPGQRLEWMGRINPYNGAASHNQKFKDRVTITRDTSASTAYMELSSLRSEDTAVYYCARGWDYDGGYYAMDYWGQGTLVTVSS
VL: DIQMTQSPSSLSASVGDRVTITCKSSQSLLYSDNQKNYLAWYQQKPGKAPKLLIYWASTRESGVPSRFSGSGSGTDFTLTISSLQPEDFATYYCQQYYTYPYTFGQGTKLEIK
In the case of B1, the binding entry in test [1] is “binds”.

B2: humanized antibody hz27H4H1L2 (antibody, V domains shown)
VH: EVQLVQSGAEVKKPGASVKVSCKASGYTFTGYHMHWVRQAPGQRLEWMGRINPYNGAASHNQKFKDRVTITRDTSASTAYMELSSLRSEDTAVYYCARGWDYDGGYYAMDYWGQGTLVTVSS
VL: DIVMTQSPLSLPVTPGEPASISCKSSQSLLYSDNQKNYLAWYLQKPGQSPQLLIYWASTRESGVPDRFSGSGSGTDFTLKISRVEAEDVGVYYCQQYYTYPYTFGQGTKLEIK
Regarding B2, the binding entry in test [1] is “binds”.

B3: anti-human CLL-1 control antibody 1075.7 (antibody)
scFv: ENVLTQSPAIMSASPGEKVTMTCRASSNVISSYVHWYQQRSGASPKLWIYSTSNLASGVPARFSGSGSGTSYSLTISSVEAEDAATYYCQQYSGYPLTFGAGTKLELGGGGSGGGGSGGGGSDIQLQESGPGLVKPSQSLSLTCSVTGYSITSAYYWNWIRQFPGNKLEWMGYISYDGRNNYNPSLKNRISITRDTSKNQFFLKLNSVTTEDTATYYCAKEGDYDVGNYYAMDYWGQGTSVTVSS
For B3, the binding result in test [2], in test [3] and in test [4] was “binds” in each case.
